# Whole data set: some 33,000 sequences, median “E-score (-0.5 to 0.5)” near -0.0034, cut for the highest 2% near 0.25. The list shows a part of the results.
# Molecular target: T1, Yap3 (UniProt P38749)
# T1 sequence: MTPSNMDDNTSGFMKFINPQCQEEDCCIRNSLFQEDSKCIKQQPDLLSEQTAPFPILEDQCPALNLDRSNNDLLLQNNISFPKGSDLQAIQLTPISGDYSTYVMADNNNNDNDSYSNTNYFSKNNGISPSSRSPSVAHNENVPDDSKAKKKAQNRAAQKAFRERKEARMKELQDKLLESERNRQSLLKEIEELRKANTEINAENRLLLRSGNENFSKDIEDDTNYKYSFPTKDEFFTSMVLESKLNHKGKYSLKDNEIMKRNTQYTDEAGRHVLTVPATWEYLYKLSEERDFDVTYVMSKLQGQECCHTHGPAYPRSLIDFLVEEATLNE
# Assay: PBM E-score (8-mer binding enrichment) (E-score (-0.5 to 0.5)); higher = stronger / more preferred TF binding
# Settings: protein concentration: 100 nM; construct: GST-full length
# Procedure: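 Universal 'all 10-mer' protein binding microarrays (Agilent AMADID 015681) probed with GST-tagged S. cerevisiae TFs (full-length or DBD) made by in vitro transcription/translation (PURExpress), about 100-200 nM. Bound TF was detected with fluorescent anti-GST. Each ungapped 8-mer (which stands for itself and its reverse complement) is scored by the PBM enrichment score (E-score), a modified Wilcoxon-Mann-Whitney statistic from -0.5 to +0.5, computed with the Universal PBM Analysis Suite. Scale: above 0.35 generally sequence-specific binding.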
row,Sequence,PBM E-score
1,CCCGCGAC,-0.205
2,AGTTAGCG,0.185
3,AGACCGTA,-0.204
4,TTGAACAA,-0.00027
5,AAAGTGTA,0.14
6,TCGCTTAA,0.155
7,ATGCGTGG,-0.117
8,ACTAGATC,-0.0988
9,GACCTCGA,0.11
10,ACCTAACG,-0.153
11,ATCCGTGA,0.0367
12,ATCTAAGG,0.0735
13,CAAGGATC,0.072
14,CCCGGCAG,-0.231
15,ACGAAAGA,0.159
16,TGATTGAA,0.141
17,CTCGTAAA,0.00836
18,CATGTTTC,0.205
19,AGGCCCGA,-0.135
20,ATTTATCA,0.189
21,AACTGTCC,0.052
22,CACGTGGA,0.101
23,CGCCCTAG,-0.147
24,ATGACGCG,0.143

row,Sequence,PBM E-score
1,CTCACTTA,0.0133
2,AAGTCCTC,-0.0807
3,CAAGCTCA,-0.158
4,AGCGGTGG,-0.2
5,CGATTATA,0.154
6,AATCCTGT,0.121
7,CCTCACCG,-0.274
8,CCCCCGAC,-0.268
9,CGAATAAC,0.15
10,ACCGAGGT,-0.225
11,GAGCCAGC,-0.184
12,GTGTTCAA,0.0155
13,AGTGCTCA,-0.165
14,ACTTTAAA,0.168
15,AGACGTGG,-0.168
16,AAAGCGGC,0.0828
17,CGAAGTTA,0.157
18,CTCTCTTA,-0.0535
19,ACTTTTCC,0.155
20,GGTATACC,0.12
21,CACCGAGC,0.0303
22,CCATGCAC,-0.17
23,GGGGACCA,-0.136
24,AGTGTTCC,0.065

row,Sequence,PBM E-score
1,TATGAGCA,-0.0583
2,ATAGAGAG,-0.216
3,TGTTGCAA,0.187
4,CTTATGAC,0.144
5,GAATTCGA,0.005
6,CGTTATTC,0.0755
7,GCTGAGAA,0.00157
8,AGCATGTA,0.0181
9,AGGAAAAG,0.0912
10,CCCTCTGA,-0.222
11,GTCTGTCA,0.0703
12,GTTCAGCA,-0.0106
13,CATCGTCA,0.0115
14,GTGGGCCA,0.00779
15,GATGACAC,0.132
16,CAACGATG,-0.0278
17,ACGCCCGC,-0.0787
18,AACTTTCG,0.0282
19,AATGGATA,0.0425
20,ATCGAGGC,0.0376
21,ACAGCTCT,-0.259
22,AACAGTAA,0.144
23,AATCTGCG,-0.0221
24,ACTAGAGT,-0.0534

# 3 successive records out of the list so far:
row,Sequence,PBM E-score
2,ATAGAGAG,-0.216
3,TGTTGCAA,0.187
4,CTTATGAC,0.144

# Next part:

row,Sequence,PBM E-score
1,CCCTTTAC,0.00491
2,AAAAAGTA,0.204
3,ACTGTTAA,0.155
4,CTCTAGAG,-0.193
5,ACTGCGAC,0.0458
6,TATATTAA,0.315
7,ACACGTGA,0.147
8,CTAGGTAA,-0.0173
9,TAACTCGA,0.217
10,AACTTGTC,0.0823
11,CAGTAGCG,-0.104
12,ACCGCTAG,-0.0863
13,AAACGAGG,-0.0716
14,AATCGCGG,0.0657
15,GGTCCAAC,-0.215
16,GATGTACA,0.168
17,GACTGAAC,-0.104
18,CGTCAGGA,0.00686
19,AAAGGAGT,0.0256
20,ACCTGGTG,-0.307
21,AGATGTAT,0.13
22,ACAGAATC,-0.00878
